Values from PubChem BioAssay AID652272 (Drosophila RNAi Screening Center, 2013).
In all, the deposit lists about 21,000 reagents; this is a random part of those that have a named target and a result. Over the whole deposit, 503 (2.4%) got an active call. 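Raw plate light values, not normalised; calls rest on replicate z-scores that were not deposited; hits include reporter decreases as well as increases.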 Reagents against one gene are numbered here. A plus sign joins genes that one reagent is predicted to hit. Not given: the amount of reagent, the time to read-out.

Aim: 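Finding fly genes that regulate Hedgehog signal transduction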 (primary screen)
Cell system: Drosophila clone 8 (Cl8) cells
Knock-down reagent: long dsRNA against Drosophila genes
Read-out: 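Plate reader light from a firefly reporter under a ptc promoter fragment that responds to Hedgehog, with Renilla light as transfection reference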
Direction: firefly Hh reporter signal: higher = more ptc reporter light; Renilla reference signal: higher = more Renilla control light
Rule for the call: 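Called a hit if the two-replicate mean z-score lies below -2 or above +3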
Meaning of the calls: active = hit: reporter lowered or raised; inactive = not a hit

| gene | dsRNA no. | firefly Hh reporter signal, replicate 1 | firefly Hh reporter signal, replicate 2 | firefly Hh reporter signal, replicate 3 | Renilla reference signal, replicate 1 | Renilla reference signal, replicate 2 | Outcome |
| --- | --- | --- | --- | --- | --- | --- | --- |
| stau (staufen) | 1 | 1.51e5 | 1.19e5 | – | 6848 | 4640 | inactive |
| drpr (draper) | 1 | 62209 | 35968 | – | 2273 | 2485 | inactive |
| drpr (draper) | 2 | 65088 | 42733 | – | 2034 | 3152 | inactive |
| tey (teyrha-meyrha) | 1 | 1.96e5 | 5.73e5 | 1.83e5 | 6737 | 5990 | inactive |
| CG11158 | 1 | 76011 | 2.35e5 | – | 3032 | 10140 | inactive |
| prtp (pretaporter) | 1 | 1.42e5 | 5.99e5 | 1.07e5 | 3321 | 5939 | inactive |
| PCB (Pyruvate carboxylase) | 1 | 68009 | 57799 | – | 2960 | 2256 | inactive |
| CG4998 | 1 | 1.04e5 | – | – | 3349 | 2742 | inactive |
| Tsp42Ec (Tetraspanin 42Ec) | 1 | 72080 | 61763 | – | 1979 | 5061 | inactive |
| Coa8 (Cytochrome c oxidase assembly factor 8) | 1 | 1.22e5 | 2.54e5 | – | 4396 | 8057 | inactive |
| CG6435 | 1 | 86432 | 68411 | – | 2224 | 5296 | inactive |
| mRpL24 (mitochondrial ribosomal protein L24) | 1 | 1.38e5 | 61639 | – | 4813 | 2624 | inactive |
| comt (comatose) | 1 | 68986 | 2.07e5 | – | 1878 | 7429 | inactive |
| CG3168 | 1 | 58282 | 44839 | – | 1831 | 1223 | inactive |
| Tat (Tyrosine aminotransferase) | 1 | 68821 | 1.36e5 | – | 1314 | 5961 | inactive |
| CG33521 | 1 | 4.60e5 | 1.83e5 | – | 22682 | 4117 | inactive |
| CG33521 | 2 | 97696 | 2.27e5 | – | 2528 | 8407 | inactive |
| ewg (erect wing) | 1 | 1.14e5 | 3.29e5 | – | 3908 | 12265 | inactive |
| Cyp28c1 (Cytochrome P450 28c1) | 1 | 74936 | 2.33e5 | – | 1963 | 8219 | inactive |
| Ubc4 (Ubiquitin conjugating enzyme 4) | 1 | 1.14e5 | 96672 | – | 4684 | 4154 | inactive |
| CG10340 | 1 | 1.29e5 | 80757 | – | 5195 | 3109 | inactive |
| CG10822 | 1 | 91748 | 45900 | – | 2378 | 3104 | inactive |
| Gcn2 | 1 | 56411 | 67112 | – | 1705 | 1993 | inactive |
| Sol1 | 1 | 58013 | 98096 | – | 1916 | 2778 | inactive |
| Sol1 | 2 | 94448 | 1.81e5 | – | 3223 | 4588 | inactive |
| Sol1 | 3 | 1.02e5 | 1.49e5 | – | 4011 | 3931 | inactive |
| CG5828 | 1 | 1.19e5 | 53632 | – | 3306 | 5073 | inactive |
| Dpit47 (DNA polymerase interacting tpr containing protein of 47kD) | 1 | 70166 | 38491 | – | 1626 | 3092 | inactive |
| CR33317 (pseudo) | 1 | 1.37e5 | 60893 | – | 3504 | 5901 | inactive |
| Dlic (Dynein light intermediate chain) | 1 | 1.15e5 | 82934 | – | 2795 | 2000 | inactive |
| CG11286 | 1 | 58765 | 91240 | – | 2091 | 2432 | inactive |
| Mvb12 (Multivesicular body subunit 12) | 1 | 66091 | 2.24e5 | – | 1677 | 10001 | inactive |
| CG30098 | 1 | 1.17e5 | 2.17e5 | – | 3149 | 9536 | inactive |
| wa-cup (walker cup) | 1 | 69393 | 1.01e5 | – | 2136 | 2884 | inactive |
| casp (caspar) | 1 | 1.37e5 | 81632 | – | 5591 | 3699 | inactive |
| CG9143 | 1 | 82394 | 60016 | – | 4005 | 3219 | inactive |
| CG5276 | 1 | 72868 | 96172 | – | 1964 | 2698 | inactive |
| Lcp65Ab2 + Lcp65Ab1 | 1 | 58572 | 55937 | – | 6132 | 4149 | inactive |
| Lcp65Ab2 + Lcp65Ab1 | 2 | 52709 | 41517 | – | 5218 | 3290 | inactive |
| CG8646 | 1 | 75831 | 63819 | – | 1542 | 3308 | inactive |
| Adh + Adhr | 1 | 94588 | 46307 | – | 4080 | 2332 | inactive |
| Adh + Adhr | 2 | 1.54e5 | 60743 | – | 3668 | 5704 | inactive |
| CG14491 | 1 | 93227 | 95830 | – | 1906 | 6498 | inactive |
| CG5535 | 1 | 78816 | 58071 | – | 3792 | 2625 | inactive |
| Trm1 (tRNA methyltransferase 1) | 1 | 89319 | 55655 | – | 4848 | 2400 | inactive |
| CG18635 | 1 | 6.18e5 | 99760 | – | 4512 | 4512 | inactive |
| dj-1beta | 1 | 84688 | 1.06e5 | – | 2681 | 5508 | inactive |
| CG17929 | 1 | 96007 | 1.01e5 | – | 2139 | 2216 | inactive |
| CG5846 | 1 | 86016 | 45833 | – | 3396 | 1931 | inactive |
| betaTub60D (beta-Tubulin at 60D) | 1 | 1.06e5 | 70066 | – | 2647 | 6374 | inactive |
| pkaap | 1 | 86796 | 81476 | – | 2338 | 6499 | inactive |
| puc (puckered) | 1 | 78139 | 94730 | – | 3660 | 3392 | inactive |
| qless | 1 | 99586 | 75762 | – | 3787 | 1908 | inactive |
| qless | 2 | 1.26e5 | 94249 | – | 4358 | 2263 | inactive |
| CG9624 | 1 | 76277 | 1.06e5 | – | 1880 | 1794 | inactive |
| Osi14 (Osiris 14) | 1 | 68491 | 78197 | – | 2700 | 2610 | inactive |
| CG15306 | 1 | 87617 | 1.76e5 | – | 3257 | 7680 | inactive |
| CG15306 | 2 | 1.49e5 | 7.57e5 | 3.73e5 | 5193 | 6320 | inactive |

6 successive records already listed, for reference:
| gene | dsRNA no. | firefly Hh reporter signal, replicate 1 | firefly Hh reporter signal, replicate 2 | firefly Hh reporter signal, replicate 3 | Renilla reference signal, replicate 1 | Renilla reference signal, replicate 2 | Outcome |
| --- | --- | --- | --- | --- | --- | --- | --- |
| CG10822 | 1 | 91748 | 45900 | – | 2378 | 3104 | inactive |
| Gcn2 | 1 | 56411 | 67112 | – | 1705 | 1993 | inactive |
| Sol1 | 1 | 58013 | 98096 | – | 1916 | 2778 | inactive |
| Sol1 | 2 | 94448 | 1.81e5 | – | 3223 | 4588 | inactive |
| Sol1 | 3 | 1.02e5 | 1.49e5 | – | 4011 | 3931 | inactive |
| CG5828 | 1 | 1.19e5 | 53632 | – | 3306 | 5073 | inactive |
